Results from publication PMC6179307 (2018).

Chains of the proteins cited; added tags and fusions are not shown. Lines headed by an entry give the natural chain unless they say otherwise; changes in a name come on top. Residues count along the entry.
UniProt Q9XTT9: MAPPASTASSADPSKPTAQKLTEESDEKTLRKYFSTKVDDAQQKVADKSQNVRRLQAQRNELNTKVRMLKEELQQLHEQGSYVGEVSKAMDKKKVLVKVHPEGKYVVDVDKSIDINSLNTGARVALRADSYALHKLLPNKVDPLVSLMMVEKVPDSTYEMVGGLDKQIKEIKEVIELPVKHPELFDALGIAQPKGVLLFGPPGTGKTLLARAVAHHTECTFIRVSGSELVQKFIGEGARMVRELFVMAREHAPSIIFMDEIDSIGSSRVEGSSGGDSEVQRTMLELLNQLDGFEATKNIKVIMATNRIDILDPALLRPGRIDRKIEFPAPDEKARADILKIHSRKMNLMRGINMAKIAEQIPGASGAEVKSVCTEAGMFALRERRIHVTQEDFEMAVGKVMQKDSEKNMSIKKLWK
UniProt P17343: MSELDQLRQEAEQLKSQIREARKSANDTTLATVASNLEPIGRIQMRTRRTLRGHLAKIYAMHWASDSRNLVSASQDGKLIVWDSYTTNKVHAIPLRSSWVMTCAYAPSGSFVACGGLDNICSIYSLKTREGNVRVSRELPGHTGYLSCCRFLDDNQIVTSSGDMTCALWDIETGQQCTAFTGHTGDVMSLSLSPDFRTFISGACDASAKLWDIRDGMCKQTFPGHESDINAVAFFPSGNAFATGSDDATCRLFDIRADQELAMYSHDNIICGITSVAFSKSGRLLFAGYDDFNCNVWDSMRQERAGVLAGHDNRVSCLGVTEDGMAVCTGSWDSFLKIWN
UniProt G5EFC1: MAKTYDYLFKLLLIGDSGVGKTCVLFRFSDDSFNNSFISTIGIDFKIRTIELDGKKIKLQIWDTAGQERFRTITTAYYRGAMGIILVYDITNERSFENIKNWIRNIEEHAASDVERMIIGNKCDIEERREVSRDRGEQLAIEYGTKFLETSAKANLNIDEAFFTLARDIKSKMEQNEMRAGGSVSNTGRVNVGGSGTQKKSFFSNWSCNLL
UniProt G5EDD4: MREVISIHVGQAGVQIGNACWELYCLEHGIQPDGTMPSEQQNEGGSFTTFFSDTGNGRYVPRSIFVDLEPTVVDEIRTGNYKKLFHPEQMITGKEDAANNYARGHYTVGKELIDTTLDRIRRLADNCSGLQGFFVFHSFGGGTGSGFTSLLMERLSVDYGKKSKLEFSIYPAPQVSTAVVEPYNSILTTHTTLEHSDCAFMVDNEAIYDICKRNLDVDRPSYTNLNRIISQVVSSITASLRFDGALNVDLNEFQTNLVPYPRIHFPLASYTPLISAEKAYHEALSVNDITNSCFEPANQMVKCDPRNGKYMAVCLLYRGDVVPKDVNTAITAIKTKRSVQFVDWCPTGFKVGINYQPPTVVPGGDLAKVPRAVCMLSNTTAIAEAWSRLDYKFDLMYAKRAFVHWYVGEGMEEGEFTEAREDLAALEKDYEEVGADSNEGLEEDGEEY
UniProt Q06561, residues 23-3375: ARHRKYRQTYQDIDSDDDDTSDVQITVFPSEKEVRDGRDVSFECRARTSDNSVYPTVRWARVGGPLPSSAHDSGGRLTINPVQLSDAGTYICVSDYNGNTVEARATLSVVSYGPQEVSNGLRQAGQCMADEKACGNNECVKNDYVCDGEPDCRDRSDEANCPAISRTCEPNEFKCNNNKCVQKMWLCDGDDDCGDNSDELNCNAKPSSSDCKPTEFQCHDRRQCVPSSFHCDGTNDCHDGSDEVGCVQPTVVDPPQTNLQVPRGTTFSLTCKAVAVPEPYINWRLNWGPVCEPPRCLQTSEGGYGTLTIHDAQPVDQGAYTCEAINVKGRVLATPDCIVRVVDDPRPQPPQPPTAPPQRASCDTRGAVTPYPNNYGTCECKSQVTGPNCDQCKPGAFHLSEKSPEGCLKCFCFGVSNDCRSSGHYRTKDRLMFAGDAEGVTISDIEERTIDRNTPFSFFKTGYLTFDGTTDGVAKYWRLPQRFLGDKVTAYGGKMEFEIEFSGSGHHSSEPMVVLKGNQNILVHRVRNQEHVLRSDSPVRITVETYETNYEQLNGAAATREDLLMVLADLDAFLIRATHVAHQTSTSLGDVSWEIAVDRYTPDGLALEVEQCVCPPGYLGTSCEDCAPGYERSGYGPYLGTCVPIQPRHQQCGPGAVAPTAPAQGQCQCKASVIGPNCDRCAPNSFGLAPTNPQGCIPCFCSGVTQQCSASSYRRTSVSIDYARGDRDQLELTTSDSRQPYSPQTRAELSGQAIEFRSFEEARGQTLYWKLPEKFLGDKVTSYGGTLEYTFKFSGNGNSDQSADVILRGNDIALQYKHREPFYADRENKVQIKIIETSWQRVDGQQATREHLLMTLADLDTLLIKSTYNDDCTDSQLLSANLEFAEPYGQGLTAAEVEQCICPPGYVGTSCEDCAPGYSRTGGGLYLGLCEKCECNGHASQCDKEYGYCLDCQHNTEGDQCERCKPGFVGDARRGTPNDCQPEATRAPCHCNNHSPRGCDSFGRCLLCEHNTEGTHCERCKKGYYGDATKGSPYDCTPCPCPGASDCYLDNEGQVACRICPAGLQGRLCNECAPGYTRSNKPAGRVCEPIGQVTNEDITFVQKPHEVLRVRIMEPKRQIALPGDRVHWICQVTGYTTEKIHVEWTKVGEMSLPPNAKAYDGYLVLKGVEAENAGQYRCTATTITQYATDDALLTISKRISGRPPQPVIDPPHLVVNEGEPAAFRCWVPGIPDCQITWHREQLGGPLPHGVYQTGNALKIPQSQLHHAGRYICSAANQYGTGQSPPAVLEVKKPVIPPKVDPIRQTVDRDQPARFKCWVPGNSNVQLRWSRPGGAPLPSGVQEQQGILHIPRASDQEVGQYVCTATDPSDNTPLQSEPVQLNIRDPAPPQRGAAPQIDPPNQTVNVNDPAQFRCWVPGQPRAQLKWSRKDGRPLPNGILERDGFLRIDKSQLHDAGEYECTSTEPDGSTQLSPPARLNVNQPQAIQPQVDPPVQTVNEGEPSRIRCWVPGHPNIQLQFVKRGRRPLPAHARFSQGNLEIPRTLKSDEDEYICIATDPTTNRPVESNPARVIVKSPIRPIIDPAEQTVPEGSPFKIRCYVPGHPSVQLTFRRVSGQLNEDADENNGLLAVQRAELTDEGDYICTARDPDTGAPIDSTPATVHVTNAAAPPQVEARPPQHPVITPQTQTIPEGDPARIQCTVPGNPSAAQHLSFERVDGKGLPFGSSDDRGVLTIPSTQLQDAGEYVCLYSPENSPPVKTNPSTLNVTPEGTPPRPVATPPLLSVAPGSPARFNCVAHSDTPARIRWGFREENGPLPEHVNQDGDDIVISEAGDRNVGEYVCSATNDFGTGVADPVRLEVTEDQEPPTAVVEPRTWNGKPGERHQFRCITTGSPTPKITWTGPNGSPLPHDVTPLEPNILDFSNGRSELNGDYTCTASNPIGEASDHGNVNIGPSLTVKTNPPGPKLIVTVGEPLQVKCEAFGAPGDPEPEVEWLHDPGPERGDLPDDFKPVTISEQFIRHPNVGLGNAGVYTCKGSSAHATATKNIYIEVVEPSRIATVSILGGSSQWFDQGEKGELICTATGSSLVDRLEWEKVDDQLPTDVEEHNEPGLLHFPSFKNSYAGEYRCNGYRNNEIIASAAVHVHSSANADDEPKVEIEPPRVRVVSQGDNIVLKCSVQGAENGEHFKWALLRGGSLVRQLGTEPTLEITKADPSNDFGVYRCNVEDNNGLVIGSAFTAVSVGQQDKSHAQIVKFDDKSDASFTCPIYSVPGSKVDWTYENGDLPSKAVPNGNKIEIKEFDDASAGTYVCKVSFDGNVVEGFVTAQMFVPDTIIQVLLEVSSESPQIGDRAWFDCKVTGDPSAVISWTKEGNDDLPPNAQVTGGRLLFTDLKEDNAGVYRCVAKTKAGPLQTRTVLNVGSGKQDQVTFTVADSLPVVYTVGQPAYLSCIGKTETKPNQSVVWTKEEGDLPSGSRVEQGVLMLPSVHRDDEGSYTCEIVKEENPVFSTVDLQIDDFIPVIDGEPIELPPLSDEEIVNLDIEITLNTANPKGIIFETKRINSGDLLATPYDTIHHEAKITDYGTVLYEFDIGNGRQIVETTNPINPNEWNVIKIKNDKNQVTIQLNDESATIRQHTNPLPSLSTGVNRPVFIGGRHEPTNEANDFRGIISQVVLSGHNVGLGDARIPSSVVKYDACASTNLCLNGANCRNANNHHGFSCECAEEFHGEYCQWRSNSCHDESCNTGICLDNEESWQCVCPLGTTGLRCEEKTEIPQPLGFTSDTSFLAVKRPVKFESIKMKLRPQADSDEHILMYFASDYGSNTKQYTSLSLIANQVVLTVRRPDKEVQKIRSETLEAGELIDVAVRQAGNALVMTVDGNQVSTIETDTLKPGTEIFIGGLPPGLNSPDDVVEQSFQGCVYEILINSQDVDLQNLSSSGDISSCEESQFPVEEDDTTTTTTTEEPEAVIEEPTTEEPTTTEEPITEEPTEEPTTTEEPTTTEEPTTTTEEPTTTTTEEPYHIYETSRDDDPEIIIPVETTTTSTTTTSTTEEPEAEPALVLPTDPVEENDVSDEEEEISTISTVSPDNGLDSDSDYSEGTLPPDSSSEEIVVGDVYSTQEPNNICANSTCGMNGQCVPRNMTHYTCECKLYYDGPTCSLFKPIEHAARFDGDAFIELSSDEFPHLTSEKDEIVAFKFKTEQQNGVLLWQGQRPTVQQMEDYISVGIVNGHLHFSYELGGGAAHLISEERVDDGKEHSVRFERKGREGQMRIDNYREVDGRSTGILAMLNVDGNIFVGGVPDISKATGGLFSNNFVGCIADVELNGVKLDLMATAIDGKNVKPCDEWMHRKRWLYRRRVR

B1: eif-3.E (protein, UniProt O61820 1-432)
chain: MSTFDLTQRMAPFLDLHLIIPLLEFIEPRGIYDEKSLTEMHRQLLTKTNMIDSVIETYNGKPIPAAIEAKKKQIIKERDELKSKVDSVVAILEIPEVKEMMDNNRERDGNVRILEHLTQNHNFTVDMVDTLFKYSKFMYECGNYTVASVCLYYYRNLVNQADPNYLNALYGKLASEILLQEWEHARDDLLKLRAYIDANPFDTEWELVTQRAWLMHWALFVYYNYPKGRDEIIEMFLNQQPYLNAIQVLAPHLLRYLAVAVVTSKSRQKNSLKDLVKVIDIERHSYKDPVTDFLTCLYIKYDFDEAQEMLQKCEEVLSNDFFLTAVLGDFRESARLLIFEMFCRIHQCITIEMLARRLNMSQEEAERWIVDLIRTYRIEGAKIDSKLGQVVMGVKSVSIHEQVMENTKRLTLRAQQIALQLEKGRQDKVKAT
B2: hsp-12.2 (protein, UniProt P34328 1-110)
chain: MSAIEVTADAASTWDWPLQHNDGVVKVHNTKEKFEVGLDVQFFTPKEIEVKVSGQELLIHCRHETRSDNHGTVAREINRAYKLPDDVDVSTVKSHLATRGVLTITASKKA

molecular target: T1, ELT-2::TY1::EGFP::3xFLAG (C. elegans) (UniProt Q10655); assay: affinity purification with mass spectrometry; GFP-Trap A beads on sonicated lysate of about 2,000 young adult ELT-2::GFP (OP56 x fer-1) animals exposed to P. aeruginosa PA14 for 12 hours at 25°C; 4°C for 4 hours; washed with 50 mM NH4HCO3; LC-MS/MS
T1 sequence: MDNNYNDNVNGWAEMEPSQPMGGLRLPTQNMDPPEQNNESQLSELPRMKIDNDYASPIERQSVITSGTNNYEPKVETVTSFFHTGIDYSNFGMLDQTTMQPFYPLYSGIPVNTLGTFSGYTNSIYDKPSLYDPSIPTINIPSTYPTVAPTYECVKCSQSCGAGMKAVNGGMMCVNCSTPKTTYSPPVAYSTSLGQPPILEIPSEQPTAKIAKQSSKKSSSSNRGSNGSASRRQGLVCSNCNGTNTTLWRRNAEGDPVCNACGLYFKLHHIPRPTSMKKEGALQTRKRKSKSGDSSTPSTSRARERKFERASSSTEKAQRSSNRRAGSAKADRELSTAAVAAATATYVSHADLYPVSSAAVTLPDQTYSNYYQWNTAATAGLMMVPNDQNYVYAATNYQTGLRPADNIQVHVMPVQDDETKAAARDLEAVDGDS

binding, binds:
RPT-6 (from UniProt Q9XTT9 1-416)
gpb-1 (from UniProt P17343 1-340)
rab-8 (from UniProt G5EFC1)
tba-4 (from UniProt G5EDD4)
unc-52 (from UniProt Q06561 23-3375)

molecular target: T1, ELT-2::TY1::EGFP::3xFLAG (C. elegans); assay: as above; remark: another data set of the same source

binding, binds:
B1
B2

No constants are given. Whether binding was seen depends on the method and setting. Binding seen in cells or lysates may run through a third protein. Here binding means that the protein was enriched with, or labelled near, the bait; the list need not be complete. Where a sequence is shown, tags or fusion partners need not be part of it.
